No constants are given. Whether binding was seen depends on the method and setting. In cells and extracts the contact can be indirect. Some binding calls cover weakened binding; strength is not graded here.

Sequences of proteins named here, by UniProt entry; tags and fusion partners are left off. A change or cut given only in a name is not applied to a line headed by its entry. A line that says so, or that is headed by a name, gives the form on record, which may keep a tag or linker.
GST-Abd-B313ΔHD (a.a. 313 to 493 lacking HD a.a. 384–445) (P09087, form named): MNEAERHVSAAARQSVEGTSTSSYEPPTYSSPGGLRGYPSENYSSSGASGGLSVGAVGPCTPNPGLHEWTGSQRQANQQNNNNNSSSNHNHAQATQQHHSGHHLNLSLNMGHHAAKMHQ

The target in assay [1] is GST-AbdB-HD (Abd-B homeodomain, a.a. 386–446) (Drosophila melanogaster) (UniProt P09087). The assay can be described thus: pull-down; GST fusion from bacterial crude extract on glutathione agarose beads (30 µg beads-conjugated protein) with 30 µl S^35-labelled in vitro translated protein; binding buffer 10 mM Tris-Cl pH 8, 5 mM EDTA, 0.5% DTT, 1 mM MgCl2, 150 mM NaCl; 4 hr at 4°C; no DNA; phosphorimager; only the target purified.

Assay [2] concerns the target GST-Abd-B313 (Abd-B C-terminal fragment, a.a. 313 to 493) (Drosophila melanogaster) (UniProt P09087). The description is as above.
Assay [3] deals with GST-Abd-B313ΔHD (a.a. 313 to 493 lacking HD a.a. 384–445) (Drosophila melanogaster) (UniProt P09087). Described as above.
Assay [4] addresses GST-AbdB-HD (Abd-B homeodomain, a.a. 386–446) (Drosophila melanogaster) (UniProt P09087). Briefly: pull-down; as a1, GST-AbdB-HD on beads with S^35-labelled Hth and unlabelled (cold) Exd protein added to the mixture; no DNA; only the target purified.

B1: Homothorax (Hth) (protein, UniProt O46339 1-487)
chain: MAQPRYDDGLHGYGMDSGAAAAAMYDPHAGHRPPGLQGLPSHHSPHMTHAAAAAATVGMHGYHSGAGGHGTPSHVSPVGNHLMGAIPEVHKRDKDAIYEHPLFPLLALIFEKCELATCTPREPGVQGGDVCSSESFNEDIAMFSKQIRSQKPYYTADPEVDSLMVQAIQVLRFHLLELEKVHELCDNFCHRYISCLKGKMPIDLVIDERDTTKPPELGSANGEGRSNADSTSHTDGASTPDVRPPSSSLSYGGAMNDDARSPGAGSTPGPLSQQPPALDTSDPDGKFLSSLNPSELTYDGRWCRREWSSPADARNADASRRLYSSVFLGSPDNFGTSASGDASNASIGSGEGTGEEDDDASGKKNQKKRGIFPKVATNILRAWLFQHLTHPYPSEDQKKQLAQDTGLTILQVNNWFINARRRIVQPMIDQSNRAVYTPHPGPSGYGHDAMGYMMDSQAHMMHRPPGDPGFHQGYPHYPPAEYYGQHL
modifications: methionine-S^35 labelled
Regarding B1, in assay [1], the binding entry is reported as “binds weakly”.

B2: Extradenticle (Exd) (protein, UniProt P40427 1-376)
chain: MEDPNRMLAHTGGMMAPQGYGLSGQDDGQNAGSENEVRKQKDIGEILQQIMSISEQSLDEAQARKHTLNCHRMKPALFSVLCEIKEKTVLSIRNTQEEEPPDPQLMRLDNMLIAEGVAGPEKGGGGAAAASAAAASQGGSLSIDGADNAIEHSDYRAKLAQIRQIYHQELEKYEQACNEFTTHVMNLLREQSRTRPITPKEIERMVQIIHKKFSSIQMQLKQSTCEAVMILRSRFLDARRKRRNFSKQASEILNEYFYSHLSNPYPSEEAKEELARKCGITVSQVSNWFGNKRIRYKKNIGKAQEEANLYAAKKAAGASPYSMAGPPSGTTTPMMSPAPPQDSMGYPMGSGGYDQQQPYDNSMGGYDPNLHQDLSP
modifications: methionine-S^35 labelled
Regarding B2, the binding entry in assay [2], in assay [3] and in assay [1] was “binds” throughout.

B3: Exd/Hth complex (complex, UniProt P40427 1-376; O46339 1-487)
chain 1: MEDPNRMLAHTGGMMAPQGYGLSGQDDGQNAGSENEVRKQKDIGEILQQIMSISEQSLDEAQARKHTLNCHRMKPALFSVLCEIKEKTVLSIRNTQEEEPPDPQLMRLDNMLIAEGVAGPEKGGGGAAAASAAAASQGGSLSIDGADNAIEHSDYRAKLAQIRQIYHQELEKYEQACNEFTTHVMNLLREQSRTRPITPKEIERMVQIIHKKFSSIQMQLKQSTCEAVMILRSRFLDARRKRRNFSKQASEILNEYFYSHLSNPYPSEEAKEELARKCGITVSQVSNWFGNKRIRYKKNIGKAQEEANLYAAKKAAGASPYSMAGPPSGTTTPMMSPAPPQDSMGYPMGSGGYDQQQPYDNSMGGYDPNLHQDLSP
chain 2: MAQPRYDDGLHGYGMDSGAAAAAMYDPHAGHRPPGLQGLPSHHSPHMTHAAAAAATVGMHGYHSGAGGHGTPSHVSPVGNHLMGAIPEVHKRDKDAIYEHPLFPLLALIFEKCELATCTPREPGVQGGDVCSSESFNEDIAMFSKQIRSQKPYYTADPEVDSLMVQAIQVLRFHLLELEKVHELCDNFCHRYISCLKGKMPIDLVIDERDTTKPPELGSANGEGRSNADSTSHTDGASTPDVRPPSSSLSYGGAMNDDARSPGAGSTPGPLSQQPPALDTSDPDGKFLSSLNPSELTYDGRWCRREWSSPADARNADASRRLYSSVFLGSPDNFGTSASGDASNASIGSGEGTGEEDDDASGKKNQKKRGIFPKVATNILRAWLFQHLTHPYPSEDQKKQLAQDTGLTILQVNNWFINARRRIVQPMIDQSNRAVYTPHPGPSGYGHDAMGYMMDSQAHMMHRPPGDPGFHQGYPHYPPAEYYGQHL
modifications: methionine-S^35 labelled (in the pull-down)
As for B3, the binding entry in assay [4] is recorded as “binds”.
